Data taken from publication PMC4354152.
These are yes or no findings as the source states them, for the method shown. Binding seen in cells or lysates may run through a third protein. Some results given as binding are weak or reduced against the parent protein; the word gives no strength. Where a sequence is shown, tags or fusion partners need not be part of it.

Chains of the proteins cited; added tags and fusions are not shown.
UniProt P31751: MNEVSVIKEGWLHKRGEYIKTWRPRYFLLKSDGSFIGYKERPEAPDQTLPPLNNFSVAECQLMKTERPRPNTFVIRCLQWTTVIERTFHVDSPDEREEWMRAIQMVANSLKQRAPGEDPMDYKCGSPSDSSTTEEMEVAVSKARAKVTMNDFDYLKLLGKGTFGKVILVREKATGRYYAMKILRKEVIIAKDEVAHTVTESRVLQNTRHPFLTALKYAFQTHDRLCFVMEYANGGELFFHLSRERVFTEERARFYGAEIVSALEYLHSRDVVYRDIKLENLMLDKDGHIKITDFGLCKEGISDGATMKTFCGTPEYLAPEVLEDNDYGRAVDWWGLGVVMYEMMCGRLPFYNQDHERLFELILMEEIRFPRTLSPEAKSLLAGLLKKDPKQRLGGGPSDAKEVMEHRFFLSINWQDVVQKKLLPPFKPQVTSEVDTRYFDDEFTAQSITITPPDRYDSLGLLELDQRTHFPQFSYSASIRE

Biological target: T1, GST-Tmod3 WT (full-length mouse Tmod3 with GST on the N terminus) (mouse) (UniProt Q9JHJ0)
T1 sequence: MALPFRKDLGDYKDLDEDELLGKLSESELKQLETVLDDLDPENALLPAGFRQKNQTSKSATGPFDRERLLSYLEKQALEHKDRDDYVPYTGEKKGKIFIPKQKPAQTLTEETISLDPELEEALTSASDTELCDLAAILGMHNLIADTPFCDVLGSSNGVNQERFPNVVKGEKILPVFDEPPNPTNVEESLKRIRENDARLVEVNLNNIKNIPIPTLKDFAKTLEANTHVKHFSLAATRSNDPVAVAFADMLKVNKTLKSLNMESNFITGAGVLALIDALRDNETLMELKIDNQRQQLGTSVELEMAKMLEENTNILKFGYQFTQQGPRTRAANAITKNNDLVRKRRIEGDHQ
Assay: pull-down; GST-Tmod3 on glutathione beads incubated with lysates of HEK293T expressing FLAG-Akt2; TNET buffer, 4 °C, four washes, western blot; only the target purified

binding: binds
Substance: FLAG-Akt2 expressed in HEK293T (from UniProt P31751 1-481) (enzyme)
